Experimental data: PubChem BioAssay AID1508597 (Cure First, 2020)

Purpose: 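Survival screen with siRNA in ovarian cancer cells derived from patients, with or without rucaparib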 (primary screen)
System: human ovarian carcinoma lines grown from tumours: OCI-P5x (papillary serous) and OCI-C5x (clear cell)
Reagent: siRNA pool against human genes, 1.25 pmol siRNA per well
Duration: 72 h or 96 h, depending on the cell culture
Challenge: rucaparib 20 µM (about IC30) or vehicle, present until read-out
Rucaparib or vehicle: Vehicle
Cell line: OCI-P5x (serous)
Measurement: 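Luminescent ATP-based viability assay read 72 or 96 h after transfection, depending on culture, given as normalised percent viability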
Reading the numbers: viability, normalised: higher = more viable cells remaining
Call rule: 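Active when normalised viability falls below 80 percent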
Calls: active = viability under 80%; inactive = viability 80% or more
This is an unselected part of the about 2,100 reagents, in one setting of the screen. 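Calls flag viability under 80% in either arm, not effects specific to rucaparib; the reference for percent is not stated.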 The record does not give: the 100% reference.

gene,technical replicate,"viability, normalised (%)",outcome
TCF7L1,1,72.6,active
TCF7L1,2,56.4,active
TCF7L1,3,81.6,inactive
HAUS7,1,94.3,inactive
HAUS7,2,75,active
HAUS7,3,90,inactive
CASP7,1,89.8,inactive
CASP7,2,65.7,active
CASP7,3,71.4,active
GUK1,1,62.7,active
GUK1,2,57.9,active
GUK1,3,63.7,active
FES,1,75,active
FES,2,70.2,active
FES,3,71.2,active

Targets listed so far whose gene name starts with T or t:
gene,technical replicate,"viability, normalised (%)",outcome
TCF7L1,1,72.6,active
TCF7L1,2,56.4,active
TCF7L1,3,81.6,inactive

The list goes on:
gene,technical replicate,"viability, normalised (%)",outcome
MED15,1,78.5,active
MED15,2,60.9,active
MED15,3,88,inactive
SP3,1,45.3,active
SP3,2,49.8,active
SP3,3,100,inactive
KTI12,1,65.3,active
KTI12,2,60.2,active
KTI12,3,75.4,active
